Assay [1] has as its target Rab4 (mouse brain) (mouse (endogenous in mouse brain)). As to the kind of experiment: co-IP; Rab4 precipitated with a rabbit monoclonal antibody to Rab4 (1 h, 25 °C) and Protein A/G magnetic beads from 1000 μg of the vesicle fraction (VF) of mouse brain; no detergents, to preserve vesicular membranes (Rab4-membrane IP); eluted at pH 2.8; western blot; no-antibody control. Background: A western blot detects proteins with antibodies after separation by electrophoresis.

Assay [2] concerns the target Rab4 (human iNeurons) (human (endogenous in iNeurons)). The experiment in a line: co-IP; Rab4 precipitated with a rabbit monoclonal antibody to Rab4 and Protein A/G magnetic beads from the vesicle fraction (VF) of human iNeurons, WT (Q17) and HD (Q109); no detergents, to preserve vesicular membranes; western blot, band intensities of the HD IP normalised to the WT IP; no-antibody control.

No constants are given. Whether binding was seen depends on the method and setting. In cells and extracts the contact can be indirect. Binding can be weak; no strength is given.

B1: syntaxin-17 (SYX17), mouse brain (protein, UniProt Q9D0I4 1-301)
chain: MSEDEEKVKLRRLEPAIQKFTKIVIPTDLERLRKHQINIEKYQRCRIWDKLHEEHINAGRTVQQLRSNIREMEKLCLKVHKDDLVLLKRMIDPVKEAAATATAEFLQLHLESVEELKKQVNDEELLQPSLTRSTTVDGVLHTGEAEAASQSLTQIYALPEIPQDQNAAESWETLEADLIELSHLVTDMSLLVSSQQEKIDSIADHVNSAAVNVEEGTKNLQKAAKYKLAALPVAGALIGGVVGGPIGLLAGFKVAGIAAALGGGVLGFTGGKLIQRRKQKMMEKLTSSCPDLPSQSDKKRS
As to B1, in assay [1], the binding result is given as “no binding”.

B2: HIP1, human iNeurons (protein, UniProt O00291 1-1037)
chain: MDRMASSMKQVPNPLPKVLSRRGVGAGLEAAERESFERTQTVSINKAINTQEVAVKEKHARTCILGTHHEKGAQTFWSVVNRLPLSSNAVLCWKFCHVFHKLLRDGHPNVLKDSLRYRNELSDMSRMWGHLSEGYGQLCSIYLKLLRTKMEYHTKNPRFPGNLQMSDRQLDEAGESDVNNFFQLTVEMFDYLECELNLFQTVFNSLDMSRSVSVTAAGQCRLAPLIQVILDCSHLYDYTVKLLFKLHSCLPADTLQGHRDRFMEQFTKLKDLFYRSSNLQYFKRLIQIPQLPENPPNFLRASALSEHISPVVVIPAEASSPDSEPVLEKDDLMDMDASQQNLFDNKFDDIFGSSFSSDPFNFNSQNGVNKDEKDHLIERLYREISGLKAQLENMKTESQRVVLQLKGHVSELEADLAEQQHLRQQAADDCEFLRAELDELRRQREDTEKAQRSLSEIERKAQANEQRYSKLKEKYSELVQNHADLLRKNAEVTKQVSMARQAQVDLEREKKELEDSLERISDQGQRKTQEQLEVLESLKQELATSQRELQVLQGSLETSAQSEANWAAEFAELEKERDSLVSGAAHREEELSALRKELQDTQLKLASTEESMCQLAKDQRKMLLVGSRKAAEQVIQDALNQLEEPPLISCAGSADHLLSTVTSISSCIEQLEKSWSQYLACPEDISGLLHSITLLAHLTSDAIAHGATTCLRAPPEPADSLTEACKQYGRETLAYLASLEEEGSLENADSTAMRNCLSKIKAIGEELLPRGLDIKQEELGDLVDKEMAATSAAIETATARIEEMLSKSRAGDTGVKLEVNERILGCCTSLMQAIQVLIVASKDLQREIVESGRGTASPKEFYAKNSRWTEGLISASKAVGWGATVMVDAADLVVQGRGKFEELMVCSHEIAASTAQLVAASKVKADKDSPNLAQLQQASRGVNQATAGVVASTISGKSQIEETDNMDFSSMTLTQIKRQEMDSQVRVLELENELQKERQKLGELRKKHYELAGVAEGWEEGTEASPPTLQEVVTEKE
On to B2, for which the binding result in assay [2] is given as “binds”.

B3: HAP1 (huntingtin-associated protein 1), mouse brain (protein, UniProt O35668 1-628)
chain: MRPKEQVQSGAGDGTGSGDPAAGTPTTQPAVGPAPEPSAEPKPAPAQGTGSGQKSGSRTKTGSFCRSMIIGDSDAPWTRYVFQGPYGPRATGLGTGKAEGIWKTPAAYIGRRPGVSGPERAAFIRELQEALCPNPPPTKKITEDDVKVMLYLLEEKERDLNTAARIGQSLVKQNSVLMEENNKLETMLGSAREEILHLRKQVNLRDDLLQLYSDSDDDDDEEDEEDEEEGEEEEREGQRDQDQQHDHPYGAPKPHPKAETAHRCPQLETLQQKLRLLEEENDHLREEASHLDNLEDEEQMLILECVEQFSEASQQMAELSEVLVLRLEGYERQQKEITQLQAEITKLQQRCQSYGAQTEKLQQMLASEKGIHSESLRAGSYMQDYGSRPRDRQEDGKSHRQRSSMPAGSVTHYGYSVPLDALPSFPETLAEELRTSLRKFITDPAYFMERRDTHCREGRKKEQRAMPPPPAQDLKPPEDFEAPEELVPEEELGAIEEVGTAEDGQAEENEQASEETEAWEEVEPEVDETTRMNVVVSALEASGLGPSHLDMKYVLQQLSNWQDAHSKRQQKQKVVPKDSPTPQQQTNMGGGILEQQPRVPTQDSQRLEEDRATHSPSAREEEGPSGAT
B3: the binding entry in assay [1] is listed as “no binding”.

B4: Rab11-FIP5 (the mammalian homolog of rip11), mouse brain (protein, UniProt Q8R361 1-645)
chain: MALVRDPEPAAGSSRWLPTHVQVTVLRASGLRGKSSGAGSTSDAYTVIQVGREKYSTSVVEKTQGCPEWCEECSFELPPGALDGLLRAQEADAGPAPWASGPNAACELVLTTMHRSLIGVDKFLGRATVALDEVFRAGRAQHTQWYRLHSKPGKKEKERGEIQVTIQFTRNNLSASMFDLSMKDKPRSPFSKLKDRVKGKKKYDLESASAILPSSALEDPELGSLGKMGKAKGFFLRNKLRKSSLTQSNTSLGSDSTLSSTSGSLVYQGPGAELLTRSPSHSSWLSTEGGRDSIQSPKLLTHKRTYSDEASQLRAAPPRALLELQGHLDGASRSSLCVNGSHVYNEEPQPPLRHRSSISGPFPPSSSLHSVPPRSSEEGSRSSDDSWGRGSHGTSSSEAVPGQEELSKQAKGASCSGEEEGARLPEGKPVQVATPMVASSEAVAAEKDRKPRMGLFHHHHHQGLSRSEQGRRGSVGEKGSPSLGASPHHSSTGEEKAKSSWFGLRESKEPTQKPSPHPVKPLTAAPVEASPDRKQPRTSLSTALSSGLERLKTVTSGGIQSVLPASQLGSSVDTKRPKDSAVLDQSAKYYHLTHDELIGLLLQRERELSQRDEHVQELESYIDRLLVRIMETSPTLLQISPGPPK
B4: the binding result in assay [1] is “binds”.

B5: HIP1 (huntingtin-interacting protein 1), mouse brain (protein, UniProt Q8VD75 1-1029)
chain: MDRMASSMKQVSNPLPKVLSRRGVGAGMEAAERESFERTQTVSVNKAINTQEVAVKEKHARTCILGTHHEKGAQTFWSVVNRLPLSSNAMLCWKFCHVFHKLLRDGHPNVLKDSLRYKNELSDMSRMWGHLSEGYGQLCSIYLKLLRTRMEYHTKNPRFPGNLQMSDRQLDEAGESDVNNFFQLTVEMFDYLECELNLFQTVFNSLDMSRSVSVTTAGQCRLAPLIQVILDCSHLYDYTVKLLFKLHSCLPADTLQGHRDRFMEQFTKLKDLFQRSSNLQYFKRLIQIPQLPENPPNFLRASALSEHISPVVVIPAEVSSPDSEPVLEKDDLMDMDASQQTLFDNKFDDVFGSSLSSDPFNFNNQNGVNKDEKDHLIERLYREISGLTGQLDNMKIESQRAMLQLKGRVSELEAELAEQQHLGRQAMDDCEFLRTELDELKRQREDTEKAQRSLTEIERKAQANEQRYSKLKEKYSELVQNHADLLRKNAEVTKQVSVARQAQVDLEREKKELADSFARTQEQQDVLENLKHELATSRQELQVLHSNLETSAQSEAKWLTQIAELEKEQGSLATVAAQREEELSALRDQLESTQIKLAGAQESMCQQVKDQRKTLLAGIRKAAEREIQEALSQLEEPTLISCAGSTDHLLSKVSSVSSCLEQLEKNGSQYLACPEDISELLHSITLLAHLTGDTIIQGSATSLRAPPEPADSLTEACRQYGRETLAYLSSLEEEGTMENADVTALRNCLSRVKTLGEELLPRGLDIKQEELGDLVDKEMAATSAAIEAATTRIEEILSKSRAGDTGVKLEVNERILGSCTSLMQAIKVLVVASKDLQKEIVESGRGTASPKEFYAKNSRWTEGLISASKAVGWGATIMVDAADLVVQGKGKFEELMVCSREIAASTAQLVAASKVKANKGSLNLTQLQQASRGVNQATAAVVASTISGKSQIEETDSMDFSSMTLTQIKRQEMDSQVRVLELENDLQKERQKLGELRKKHYELAGVAEGWEEGTEASPSTVQEAIPDKE
B5: the binding result in assay [1] is given as “binds”.

These data come from paper PMC7331280.
